Drawing on PubChem BioAssay AID662 (National Center for Advancing Translational Sciences (NCATS), 2007), this text covers AC50 for 40 molecules.

Molecules are shown by their SMILES. “And” between values parts separate entries of the source, which are not always exact repeats. Equal values may be shown once. Some of the results follow. The main result of the screen is listed elsewhere. These columns were measured beside it and carry no call. Most of these compounds were active or inconclusive in the main read-out, so they are no random draw. Words in brackets tell the shape of the fitted curve; partial curves, single points and poor fits give uncertain potencies.

This test can be described thus: Cell signaling CRE-BLA (Fsk stim). To be noted: CHO CRE-bla reporter (cAMP response element driving beta-lactamase), forskolin EC10, beta-lactamase ratio; measured here: 460 nm blue channel. In short, it runs like this: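 Titrated compounds plus EC10 NKH 477 on CHO CRE-bla cells, 3 h, 37 °C. CCF4, 2 h RT. Ratio 460/530 nm → AC50.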
By AC50 is commonly meant the concentration at which the activity in the assay is half-maximal. Take `COc1cccc(C2C=C(c3cccs3)Nc3ncnn32)c1OC` (stereo not given): the AC50 is 12.6 µM [rising, partial curve].
The same measure for `CCn1c(-c2ccc(OC)c(OC)c2)n[nH]c1=S`: 10 µM [rising, partial curve].
The same measure for `O=c1cc(-c2ccccc2)[nH]c2ccccc12`: 5.01 µM [rising, partial curve]; for `COc1ccc(OC)c(C(c2nnnn2Cc2ccccc2)N2CCN(C3CCCCC3)CC2)c1` (stereo not given): 5.01 µM [falling, single point]; for `CN(C)CCCN1c2ccccc2Sc2ccc3ccccc3c21`: 5.01 µM [rising, single point].
The same measure for `COc1cccc(/C(O)=C2/C(=O)C(=O)N(c3cc(C)on3)C2c2cccs2)c1` (stereo not given): 3.16 µM [rising, single point]; for `Cc1ccc(F)cc1NC(=O)c1cccc(N(C)C)c1`: 5.01 µM [falling, single point].
In the case of `CCOc1ccc(CCNC(=O)C2CCCN(C(=O)N(C)C)C2)cc1OCC` (stereo not given), the AC50 is 25.1 µM [falling, single point].
Then `COc1ccccc1N1CCN(C(=O)c2ccc3c(=O)n(Cc4ccco4)c(=S)[nH]c3c2)CC1`, with 10 µM [rising, partial curve]; and `COC(=O)c1c(-c2cccs2)csc1NC(=O)c1cccnc1`, with 2 µM [rising, partial curve].
The same measure for `CN1CCN(S(=O)(=O)c2cccc(C(=O)Nc3sc4c(c3C(N)=O)CCCC4)c2)CC1`: 1.26 µM [rising, full curve]; for `COc1ccccc1N1CCN(C(=O)c2cc(-c3cccc(Cl)c3)on2)CC1`: 25.1 µM [falling, single point]; for `Cc1ccc(CNC(=O)c2cc3c(-c4ccc(Cl)cc4)nn(C)c3s2)o1`: 2.51 µM [rising, full curve, poor fit].
The same measure for `NCCC[C@@H](CC(=O)N[C@@H]1CCCC[C@H]1C(=O)N[C@H](CC(=O)N[C@@H](CCC(=O)O)CC(=O)O)Cc1c[nH]c2ccccc12)NC(=O)C[C@H](CO)NC(=O)[C@@H]1CCCC[C@H]1N`: 12.6 µM [falling, partial curve].
On to `Cc1ccc(C)c2[nH]c(=O)c(CCNC(=O)C(C)(C)C)cc12`, for which the AC50 is 5.01 µM [rising, single point].
Then `CCOC(=O)CSc1nc2ccc(N3CCOCC3)cc2c(=O)n1Cc1ccc2c(c1)OCO2`, with 0.316 µM [rising, partial curve].
With `CCCc1[nH]nc2c1C(c1ccc(OC)c(CSC3=NCCS3)c1)C(C#N)=C(N)O2` (stereo not given), the AC50 is 12.6 µM [rising, partial curve].
With `O=C(CCc1ccccc1)Nc1ncn[nH]1`, the AC50 was 1.58 µM [falling, partial curve].
The same measure for `CCOC(=O)c1cc2c(N)c(C(=O)c3cc(C#N)c(SC)nc3C)sc2nc1C`: 10 µM [rising, partial curve]; for `CC(C)(C)c1cnnn1-c1ccc(NC(=O)c2ccc3c(c2)OCO3)cc1`: 10 µM [rising, partial curve].
In the case of `COc1ccccc1N1CCN(Cc2cc(Br)c(O)c3ncccc23)CC1`, the AC50 is 10 µM [falling, partial curve].
The same measure for `C=CCn1c(Br)nc2c1c(=O)[nH]c(=O)n2C`: 25.1 µM [rising, single point]; for `COc1ccc(CCNC(=O)CCN2C(=O)COc3ccc(C)cc32)cc1OC`: 10 µM [rising, partial curve]; for `O=C(c1csc2c1CCCC2)N1CCN(c2ccccc2)CC1`: 0.0398 µM [falling, full curve, poor fit].
The same measure for `Cc1cc(C)cc(NS(=O)(=O)c2ccc3[nH]cc(C(=O)NCc4ccco4)c(=O)c3c2)c1`: 25.1 µM [falling, single point]; for `CN(c1ccccc1)S(=O)(=O)c1cc(C(=O)N2CCN(c3ccccn3)CC2)ccc1Cl`: 0.0251 µM [falling, full curve, poor fit]; for `O=c1c(-c2ccccc2)nc2cnc(N3CCNCC3)nc2n1Cc1ccc(F)cc1`: 2.51 µM [rising, full curve].
Then `COc1ccc(Oc2ncc3nc(-c4ccc(OC)cc4)c(=O)n(C)c3n2)cc1`, with 15.8 µM [rising, partial curve].
As to `Cc1cc(C)c(NC(=O)c2cc3c(nc4sccn43)s2)c(C)c1`, the AC50 was 1 µM [rising, full curve, poor fit].
The same measure for `COc1ccc(CCN(C)CCc2ccc(OC)c(OC)c2)cc1OC`: 0.794 nM [falling, full curve, poor fit] and 12.6 µM [rising, partial curve, poor fit]; for `Cc1ccccc1-c1nc(CN2CCC(C(=O)NCc3ccco3)CC2)c(C)o1`: 5.01 µM [falling, single point]; for `COc1ccc(C)cc1NC(=O)c1nnn(Cc2cc(C)ccc2C)c1N`: 3.16 µM [rising, full curve, poor fit].
Then `CCc1ccc(S(=O)(=O)c2n[nH]n3c2nc(=O)c2ccccc23)cc1`, with 0.02 µM [rising, full curve, poor fit]; and `COCCn1c(=O)c(-c2cccs2)nc2cnc(Oc3ccccc3)nc21`, with 12.6 µM [rising, partial curve].
Turning to `Cc1cccc(NC(=O)CSc2nnc(-c3cc(C)n(-c4ccccc4)c3C)o2)c1C`, the AC50 was 0.126 µM [falling, full curve, poor fit].
Then `CCn1c(=S)sc2nc(C)sc21`, with 12.6 µM [rising, single point]; and `OC(CCN1CCOCC1)(c1ccc(Cl)cc1)C1CCCCC1` (stereo not given), with 0.251 µM [falling, partial curve]; and `CCOC(=O)c1c(C)[nH]c(C(=O)COC(=O)c2cnc(C)cn2)c1C`, with 20 µM [rising, single point].
As to `CC(C)Oc1cccc(-n2c(CCc3c[nH]c4ccc(Br)cc34)nc3ccccc3c2=O)c1`, the AC50 was 0.158 µM [rising, full curve, poor fit].
The same measure for `Cc1cccc(NC(=O)C2CCCN(S(=O)(=O)c3cccc4cccnc34)C2)c1` (stereo not given): 25.1 µM [falling, single point].
